The results in this text go back to paper PMC9597953.

By UniProt entry, the sequences of proteins in these tests, tags left out. Where a name states a change or a piece, a line headed by the entry shows the natural chain unless it says otherwise.
UniProt P63027: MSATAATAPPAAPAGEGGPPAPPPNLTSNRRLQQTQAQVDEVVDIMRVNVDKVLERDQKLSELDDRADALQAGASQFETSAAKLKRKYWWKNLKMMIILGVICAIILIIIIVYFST
UniProt Q12756: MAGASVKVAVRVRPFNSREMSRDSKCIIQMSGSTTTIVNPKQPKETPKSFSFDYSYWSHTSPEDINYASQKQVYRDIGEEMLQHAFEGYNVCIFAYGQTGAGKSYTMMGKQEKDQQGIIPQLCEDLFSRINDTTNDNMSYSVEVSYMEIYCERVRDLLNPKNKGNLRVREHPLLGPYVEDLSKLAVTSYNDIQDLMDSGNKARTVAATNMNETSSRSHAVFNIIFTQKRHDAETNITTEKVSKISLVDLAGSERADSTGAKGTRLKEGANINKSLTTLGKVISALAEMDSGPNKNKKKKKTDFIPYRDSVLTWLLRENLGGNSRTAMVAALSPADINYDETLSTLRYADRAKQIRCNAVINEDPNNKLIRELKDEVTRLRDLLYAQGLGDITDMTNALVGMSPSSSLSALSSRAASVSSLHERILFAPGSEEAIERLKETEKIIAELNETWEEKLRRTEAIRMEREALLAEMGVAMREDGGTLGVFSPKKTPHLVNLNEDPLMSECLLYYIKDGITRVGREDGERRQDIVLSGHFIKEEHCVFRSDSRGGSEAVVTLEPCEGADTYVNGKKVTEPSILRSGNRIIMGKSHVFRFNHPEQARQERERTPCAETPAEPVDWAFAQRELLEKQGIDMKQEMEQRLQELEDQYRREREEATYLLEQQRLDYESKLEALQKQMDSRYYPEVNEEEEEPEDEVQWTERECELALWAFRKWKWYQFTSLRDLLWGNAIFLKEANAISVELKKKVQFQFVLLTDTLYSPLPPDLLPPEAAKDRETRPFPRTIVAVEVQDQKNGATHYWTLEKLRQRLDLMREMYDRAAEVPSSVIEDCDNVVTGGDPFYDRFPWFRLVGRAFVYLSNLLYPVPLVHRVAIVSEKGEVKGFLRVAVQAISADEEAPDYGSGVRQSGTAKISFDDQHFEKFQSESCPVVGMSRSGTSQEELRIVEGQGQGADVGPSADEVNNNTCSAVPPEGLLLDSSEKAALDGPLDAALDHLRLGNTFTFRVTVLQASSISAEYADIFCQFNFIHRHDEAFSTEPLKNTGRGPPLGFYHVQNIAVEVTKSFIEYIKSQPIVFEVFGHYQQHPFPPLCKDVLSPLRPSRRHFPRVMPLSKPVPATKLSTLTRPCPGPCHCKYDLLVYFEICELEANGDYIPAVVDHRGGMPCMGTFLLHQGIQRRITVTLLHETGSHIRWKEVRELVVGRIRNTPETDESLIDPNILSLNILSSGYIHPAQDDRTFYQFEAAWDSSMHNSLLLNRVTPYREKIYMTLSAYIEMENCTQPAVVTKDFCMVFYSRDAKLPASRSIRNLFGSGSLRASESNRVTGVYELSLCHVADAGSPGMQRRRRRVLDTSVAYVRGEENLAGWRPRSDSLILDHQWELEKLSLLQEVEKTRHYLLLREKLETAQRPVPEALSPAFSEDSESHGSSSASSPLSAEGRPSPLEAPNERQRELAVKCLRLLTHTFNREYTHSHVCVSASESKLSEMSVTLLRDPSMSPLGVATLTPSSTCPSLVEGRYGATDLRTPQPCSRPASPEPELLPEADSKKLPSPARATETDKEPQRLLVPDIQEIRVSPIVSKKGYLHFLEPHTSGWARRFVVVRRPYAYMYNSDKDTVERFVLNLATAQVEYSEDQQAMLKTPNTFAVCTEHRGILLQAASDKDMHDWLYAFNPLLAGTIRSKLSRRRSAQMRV
UniProt P08247: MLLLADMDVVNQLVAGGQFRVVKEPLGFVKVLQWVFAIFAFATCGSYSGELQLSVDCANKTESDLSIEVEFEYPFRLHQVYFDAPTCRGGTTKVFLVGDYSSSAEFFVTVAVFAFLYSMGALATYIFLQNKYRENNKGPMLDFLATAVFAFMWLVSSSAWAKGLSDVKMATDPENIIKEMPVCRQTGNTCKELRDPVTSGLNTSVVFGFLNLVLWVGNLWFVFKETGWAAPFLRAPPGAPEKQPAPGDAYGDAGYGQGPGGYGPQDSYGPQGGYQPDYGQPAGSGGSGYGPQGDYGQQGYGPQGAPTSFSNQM

These are yes or no findings as the source states them, for the method shown. Binding seen in cells or lysates may run through a third protein. Some entries that bind do so weakly or less than the wild type. For part of these data: Tags and fused reporters may be left off the sequences shown.

The target of one experiment is T1, FLAG-RAB3A (UniProt P20336).
T1 sequence: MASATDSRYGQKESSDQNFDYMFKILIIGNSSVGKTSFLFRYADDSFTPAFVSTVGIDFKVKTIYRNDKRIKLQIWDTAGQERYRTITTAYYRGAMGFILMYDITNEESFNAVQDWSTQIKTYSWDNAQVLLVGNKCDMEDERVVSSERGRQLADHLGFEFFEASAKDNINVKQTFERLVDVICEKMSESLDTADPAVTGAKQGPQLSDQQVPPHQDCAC
Kind of experiment: co-IP; HEK293T cells cotransfected with FLAG-RAB3A or FLAG-VAMP2 and KIF1A-Venus; lysis in 20 mM Tris-HCl pH 7.5, 150 mM NaCl, 1 mM EGTA, 1% Triton X-100; anti-FLAG M2 beads 4 h at 4 °C; blot with anti-GFP and anti-FLAG.

Another experiment has as its target FLAG-VAMP2 (UniProt P63027). The experiment is described as above.
For experiment [1], the target named is KIF1A-3xFLAG Y799C (human) (UniProt Q12756). Kind of experiment: co-IP; HEK293T cells, KIF1A (WT or variant) with synaptophysin; which partner was precipitated is not stated in the text (methods: anti-FLAG M2 beads, 20 mM Tris-HCl pH 7.5, 150 mM NaCl, 1 mM EGTA, 1% Triton X-100).
Experiment [2] addresses KIF1A-3xFLAG R370C (human) (UniProt Q12756). The experiment is described as above.
The target in experiment [3] is KIF1A-3xFLAG, wild type (human) (UniProt Q12756). Described as above.

Take “KIF1A-Venus A1643V (from UniProt Q12756-1 1-1690)”: the binding result with FLAG-RAB3A and with FLAG-VAMP2 was “binds” each time.
Take “KIF1A-Venus P1587L (from UniProt Q12756-1 1-1690)”: the binding result in the experiment with FLAG-RAB3A and in the experiment with FLAG-VAMP2 was “binds” each time.
In the case of “KIF1A-Venus R370C (from UniProt Q12756-1 1-1690)”, the binding result with FLAG-RAB3A and in the experiment with FLAG-VAMP2 was “binds” in each case.
Consider “KIF1A-Venus R1100C (from UniProt Q12756-1 1-1690)”, for which the binding result in the experiment with FLAG-RAB3A and with FLAG-VAMP2 was “binds” throughout.
Regarding “KIF1A-Venus R1356Q (from UniProt Q12756-1 1-1690)”, the binding result with FLAG-RAB3A and with FLAG-VAMP2 was “binds” in each case.
On to “KIF1A-Venus, wild type (from UniProt Q12756-1 1-1690)”, for which the binding entry with FLAG-RAB3A and with FLAG-VAMP2 was “binds” throughout.
With “RFP-synaptophysin (from UniProt P08247 1-313)”, the binding entry in experiment [1], in experiment [2] and in experiment [3] was “binds” throughout.
